Measurements reported in PubChem BioAssay AID1224826 (NIAID, 2016)
This is an unselected part of about 17,000 deposited reagents. About 1,110 of them (6.6%) were called active. 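Active means lowered or raised reporter signal; replicate intensities are raw and not normalised per plate.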 Unmarked entries are inactive.

- Assay: 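Knock-downs that raise or lower Tnf reporter signal after endotoxin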 (primary screen)
- Cell system: RAW264.7 G9 macrophages from mouse bearing reporters for p65 (GFP) and the Tnf promoter (mCherry)
- Reagents: siRNA pool against mouse genes, 100 nM
- Duration: 16 h of LPS stimulation, after 2 days of siRNA transfection
- Challenge: bacterial lipopolysaccharide (Salmonella minnesota R595), 10 ng/ml
- Read-out: 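Imaged Tnf reporter mCherry in nuclei, minus background, normalised per plate to the median and expressed as robust z-scores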
- Scale: Tnf reporter robust z-score: higher = stronger Tnf promoter reporter signal after LPS; Tnf reporter intensity: higher = stronger Tnf promoter reporter signal
- Call rule: 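a well counts as active at a score of -1.3 or below (Tlr4 knock-down control median) or above 3 (raised signal); controls and wells holding fewer than 50 cells are excluded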
- Meaning of the calls: active = Tnf reporter clearly lowered or raised; inactive = no clear change in Tnf reporter

gene	Tnf reporter robust z-score	fewer than 50 cells in well	Tnf reporter intensity, replicate 1	Tnf reporter intensity, replicate 2
Itpkc (inositol 1,4,5-trisphosphate 3-kinase C)	-0.73	enough cells in well	121	122
Dennd4b (DENN domain containing 4B)	-0.47	enough cells in well	180	177
Cabcoco1 (ciliary associated calcium binding coiled-coil 1)	0.68	enough cells in well	261	41.1
Arpc4 (actin related protein 2/3 complex, subunit 4)	-0.43	enough cells in well	157	130
Sel1l (sel-1 suppressor of lin-12-like (C. elegans))	0.05	enough cells in well	282	220
Klk4	1.08	enough cells in well	274	171
Myo1g (myosin IG)	-0.68	enough cells in well	129	107
Vegfb (vascular endothelial growth factor B)	-0.64	enough cells in well	175	186
Tdg (thymine DNA glycosylase)		fewer than 50 cells per well; well left out of calls	140	135
Kcna3	-0.77	enough cells in well	177	111
Usp1 (ubiquitin specific peptidase 1)	0.68	enough cells in well	277	290
Tmem18 (transmembrane protein 18)	2.63	enough cells in well	380	403
Myo6 (myosin VI)	0.59	enough cells in well	338	228
Phkb (phosphorylase kinase beta)	-0.41	enough cells in well	224	155
Tfam (transcription factor A, mitochondrial)	0.69	enough cells in well	279	170
Eif4g3 (eukaryotic translation initiation factor 4 gamma, 3)	-1.34 (active)	enough cells in well	107	94.5
Sash3 (SAM and SH3 domain containing 3)	2.04	enough cells in well	355	138
Sephs1 (selenophosphate synthetase 1)	0.04	enough cells in well	164	195
H1f10 (H1.10 linker histone)	-0.57	enough cells in well	186	141
Or8g28 (olfactory receptor family 8 subfamily G member 28)	1.65	enough cells in well	210	226
Uck1 (uridine-cytidine kinase 1)	0.07	enough cells in well	180	79.6
Or10v5 (olfactory receptor family 10 subfamily V member 5)	4.73 (active)	enough cells in well	451	326
Armh4 (armadillo-like helical domain containing 4)		fewer than 50 cells per well; well left out of calls	193	62.2
Trip13 (thyroid hormone receptor interactor 13)	-0.23	enough cells in well	206	220
Eef1g (eukaryotic translation elongation factor 1 gamma)	-0.22	enough cells in well	180	102
Meox1 (mesenchyme homeobox 1)	-0.33	enough cells in well	261	161
9130221H12Rik (RIKEN cDNA 9130221H12 gene)	-1.38 (active)	enough cells in well	104	82.9
Bnip3l (BCL2/adenovirus E1B interacting protein 3-like)	0.05	enough cells in well	148	164
Cacna1e (calcium channel, voltage-dependent, R type, alpha 1E subunit)	-0.24	enough cells in well	120	166
Scgn (secretagogin, EF-hand calcium binding protein)	-0.26	enough cells in well	98.8	134
Alg12 (ALG12 alpha-1,6-mannosyltransferase)	-0.15	enough cells in well	144	228
Arid2 (AT-rich interaction domain 2)	1.77	enough cells in well	343	196
Ptpn9 (protein tyrosine phosphatase, non-receptor type 9)	-1	enough cells in well	155	134
Mccc2 (methylcrotonoyl-Coenzyme A carboxylase 2 (beta))	-0.02	enough cells in well	314	161
Tle4 (transducin-like enhancer of split 4)	0.44	enough cells in well	234	175
Cdcp2 (CUB domain containing protein 2)	-1.04	enough cells in well	107	128
Prl3b1 (prolactin family 3, subfamily b, member 1)	-0.02	enough cells in well	166	193
Defb50 (defensin beta 50)	-1.16	enough cells in well	124	81.2
Gp1bb (glycoprotein Ib, beta polypeptide)	0.01	enough cells in well	202	221
Ftsj3 (FtsJ RNA 2'-O-methyltransferase 3)	1.42	enough cells in well	416	169
Epo (erythropoietin)	-1.33 (active)	enough cells in well	122	131
Atp11a (ATPase, class VI, type 11A)	-0.77	enough cells in well	113	135
Prokr2 (prokineticin receptor 2)	-0.09	enough cells in well	222	262
Tgif2lx1 (TGFB-induced factor homeobox 2-like, X-linked 1)	1.39	enough cells in well	338	199
Or4a68 (olfactory receptor family 4 subfamily A member 68)	3.57 (active)	enough cells in well	375	282
Abca4 (ATP-binding cassette, sub-family A member 4)	-0.16	enough cells in well	160	138
Sae1 (SUMO1 activating enzyme subunit 1)		fewer than 50 cells per well; well left out of calls	60.5	78.7
Pax5 (paired box 5)	-0.23	enough cells in well	224	167
Acvr1 (activin A receptor, type 1)	-1.23	enough cells in well	120	88.2
Mylk (myosin, light polypeptide kinase)	0.13	enough cells in well	166	205
Alk (anaplastic lymphoma kinase)	-0.69	enough cells in well	158	114
Aifm3 (apoptosis-inducing factor, mitochondrion-associated 3)	0.35	enough cells in well	349	57
4933428P19Rik (RIKEN cDNA 4933428P19 gene)	-0.27	enough cells in well	127	164
Ccdc88b (coiled-coil domain containing 88B)		fewer than 50 cells per well; well left out of calls	142	48.8
Bcl2 (B cell leukemia/lymphoma 2)	-0.69	enough cells in well	114	120
Itgb2l (integrin beta 2-like)	1.02	enough cells in well	281	161
Vwa3b (von Willebrand factor A domain containing 3B)	0.07	enough cells in well	204	125
Rufy1 (RUN and FYVE domain containing 1)	2.28	enough cells in well	212	241
